Source: paper PMC7862700
This is a selection; strong and weak results do not stand in their true shares. For some assays here: At the low end of the ranking the order means little. Some of the results follow. For some assays here: Construct or isoform of the protein are uncertain.

Sequences of proteins named here, by UniProt entry; tags and fusion partners are left off. A change or cut given only in a name is not applied to a line headed by its entry.
UniProt Q00613: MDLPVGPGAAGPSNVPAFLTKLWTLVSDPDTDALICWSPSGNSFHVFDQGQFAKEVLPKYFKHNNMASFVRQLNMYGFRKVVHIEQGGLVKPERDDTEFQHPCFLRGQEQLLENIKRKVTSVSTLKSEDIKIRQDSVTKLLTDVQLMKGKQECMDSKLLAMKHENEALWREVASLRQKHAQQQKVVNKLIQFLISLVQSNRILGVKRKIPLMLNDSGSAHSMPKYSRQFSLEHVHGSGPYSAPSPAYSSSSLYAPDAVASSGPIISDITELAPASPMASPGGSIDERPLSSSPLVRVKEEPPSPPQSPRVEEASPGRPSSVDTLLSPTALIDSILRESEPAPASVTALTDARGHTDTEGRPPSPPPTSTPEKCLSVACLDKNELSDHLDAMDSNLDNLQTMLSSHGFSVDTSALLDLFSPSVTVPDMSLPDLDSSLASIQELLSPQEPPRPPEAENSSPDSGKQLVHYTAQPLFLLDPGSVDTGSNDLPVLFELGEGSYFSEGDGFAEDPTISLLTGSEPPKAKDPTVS

Each sequence was assayed against HSF1 (UniProt Q00613) (assay: DAPPL (digital affinity profiling via proximity ligation, sequencing)). Details: 10 mM Tris-HCl pH 7.5, 50 mM NaCl, 1 mM DTT, 4% glycerol, room temperature, 30 min; GST-TFs on glutathione beads, 16-mer random dsDNA library, 0.1% …; high values mean tight binding; double strand, one strand shown; scale: fold enrichment (6-mer frequency, TF over GST control).

Sequence	binding signal
TGGGTG	0.828
AATTTT	1.51
AAGGGT	0.95
GTACAC	0.899
AATATG	1.12
CTACTA	1.43
GTTCTC	2.29
CGGCCC	0.667
GCACAT	0.908
GACGTT	0.847
CCCCAC	0.921
CTGTTG	0.9
GCGTTT	0.932
GCCCAT	0.819
AGGCTT	1.24
GCCGCC	0.766
TGACGC	0.969
TGATAT	1.01
GCTACA	0.94
GGTATC	0.839

Sequence	binding signal
TGCCGA	1.07
TTAATA	2.09
ATCCTA	1.61
TGTGCC	0.893
CCCGTC	0.915
CTCACC	0.995
TGCGAC	0.975
CCCGGT	0.745
TACAGC	0.932
ATACTT	1.34
GCGGCA	0.732
ACGGTT	0.877
AGAACC	1.55
AAACGA	1.09
AGCCAC	0.886
TTTCGT	1.48
ACCGCC	0.977
TAGAAC	2.74
GTGGCA	0.777
CGCGCG	0.957

Each sequence was assayed against T1, ELF2 (UniProt Q15723) in the same assay as above. Details: 10 mM Tris-HCl pH 7.5, 50 mM NaCl, 1 mM DTT, 4% glycerol, room temperature, 30 min; GST-TFs on glutathione beads, 16-mer random dsDNA library, 0.1% …; high values mean tight binding; double strand, one strand shown; scale: fold enrichment (6-mer frequency, TF over GST control).
T1 sequence: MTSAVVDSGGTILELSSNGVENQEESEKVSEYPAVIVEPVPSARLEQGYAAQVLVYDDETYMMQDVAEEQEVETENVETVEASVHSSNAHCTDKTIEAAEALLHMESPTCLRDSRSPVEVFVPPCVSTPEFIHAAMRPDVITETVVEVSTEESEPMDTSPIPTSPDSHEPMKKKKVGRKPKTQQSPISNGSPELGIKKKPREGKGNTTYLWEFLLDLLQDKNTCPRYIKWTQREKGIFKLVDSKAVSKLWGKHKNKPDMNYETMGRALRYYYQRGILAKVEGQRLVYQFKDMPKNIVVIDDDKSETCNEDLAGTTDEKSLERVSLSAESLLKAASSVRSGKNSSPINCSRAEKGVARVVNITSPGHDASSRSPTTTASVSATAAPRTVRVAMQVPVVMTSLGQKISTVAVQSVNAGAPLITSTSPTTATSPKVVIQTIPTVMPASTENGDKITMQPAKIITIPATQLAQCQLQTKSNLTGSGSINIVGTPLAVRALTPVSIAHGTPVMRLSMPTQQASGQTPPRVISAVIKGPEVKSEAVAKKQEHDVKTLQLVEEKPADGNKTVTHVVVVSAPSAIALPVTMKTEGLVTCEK

Sequence	binding signal
TGGGTG	0.922
AATTTT	1.29
AAGGGT	0.956
GTACAC	1.2
AATATG	1.14
CTACTA	1.25
GTTCTC	1.25
CGGCCC	0.931
GCACAT	1.1
GACGTT	0.888
CCCCAC	1.14
CTGTTG	1.07
GCGTTT	1.15
GCCCAT	0.953
AGGCTT	0.99
GCCGCC	0.975
TGACGC	1.12
TGATAT	1.09
GCTACA	1.16
GGTATC	1.07

Sequence	binding signal
TGCCGA	1.1
TTAATA	1.19
ATCCTA	1.37
TGTGCC	1.05
CCCGTC	1.04
CTCACC	1.15
TGCGAC	1.19
CCCGGT	1.06
TACAGC	1.04
ATACTT	1.77
GCGGCA	0.856
ACGGTT	0.987
AGAACC	0.936
AAACGA	1.07
AGCCAC	0.953
TTTCGT	1.33
ACCGCC	1.19
TAGAAC	0.989
GTGGCA	0.951
CGCGCG	1.04
